Publication PMC3154951
Results are given in words; binding and its absence hold for the method and conditions named. Some binding calls cover weakened binding; strength is not graded here.

Molecular target: T1, full-length MLS-1 bait (C. elegans) (UniProt O17212)
T1 sequence: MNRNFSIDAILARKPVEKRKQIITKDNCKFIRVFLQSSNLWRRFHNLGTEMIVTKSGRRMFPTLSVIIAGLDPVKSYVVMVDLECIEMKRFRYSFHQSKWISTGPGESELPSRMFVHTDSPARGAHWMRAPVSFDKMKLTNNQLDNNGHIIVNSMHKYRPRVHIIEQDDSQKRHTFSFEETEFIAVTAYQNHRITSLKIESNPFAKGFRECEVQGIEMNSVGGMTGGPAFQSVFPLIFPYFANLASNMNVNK
Test: two-hybrid; yeast two-hybrid; mls-1 bait in pLexA-NLS, unc-37 prey from the pACT-RB1 cDNA library

binding: binds
B1: UNC-37 prey, residues 70-612 (entire WD repeat domain) (domain or fragment, UniProt O02482 70-612)
chain: EFIMQSLAPQLSQDNQANCLAALEAFKTASPRENGNGAPALPPGFPPGAAGMLGMMPNMPFGMSPAMSQLFNQFASPHVNGGDGAGGSSGGASEAKKAKLEDPDDGELEIDVTNDDHPSTASNGGAANKNGRDSTNSVASSGASTPSIASNSRARQQQQPLAGLQGLEQMNFLAGFNPNLLRQASAAGGFNFLNDPHAQARLAAAIGQIGSRPAYSFKIVDGGVPTPTSFPPDAQKGPGIPTGLKKKMELNHGEVVCAATISRDNSRVYTGGKGCVKIWDVKESDISGATVVNRPPIASLDCLKENYIRSCKLFEDGNTLLIGGEASTVALWDLTTETKTLDLETDSQACYALAMSPDEKLLFACLADGNILIYDIHNKVKVGTLPGHQDGASCLDLSKDGTKLWSGGLDNSVRCWDLAQRKEVAKHDFASQVFSLGCCPNDEWVAVGMENNYVEVLSTTGKEKYQLTQHESCVLSLKFAHSGKFFISTGKDNALNAWRTPYGASLFQLKENSSVLSCDISFDDSLIVTGSGEKKATLYAVEY
